Results deposited as PubChem BioAssay AID652243 (Drosophila RNAi Screening Center, 2013).
The deposit covers about 24,000 reagents; below is an unselected part of those that have a named target and a result. In the full data, 246 (1%) got an active call. 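Plates not normalised; calls are printed but the firefly/Renilla ratio behind them is not deposited; fold cut for lowering reported inconsistently.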 The raw values are shown without normalisation. Names joined by + are all predicted targets of the reagent. No sequences are given here. The record does not give: the amount of reagent.

Aim: 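Fly genes required for human androgen receptor driven transcription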 (primary screen)
Cell system: Drosophila S2R+ cells
Reagents: long dsRNA against Drosophila genes
Timing: 72 h (48 h, then 24 h hormone)
Challenge: synthetic androgen R1881 at 10 nM for 24 h
Detection: 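Per-well raw luminescence of the androgen-driven firefly reporter and of the Renilla control, two replicates each, without normalisation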
Scale: firefly reporter light: higher = more light from androgen-responsive reporter; Renilla control light: higher = more constitutive control signal (cell number, transfection)
Active means: 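Across duplicate plates, a knock-down whose log firefly/Renilla ratio shifted a set fold down or up from the GFP/LacZ control mean was a hit; the downward cut appears as both 1.5 and 3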
Calls: active = hit: reporter lowered or raised; inactive = no hit

CG32625 [DRSC18994] showed firefly reporter light, replicate 1 = 4.79e5; firefly reporter light, replicate 2 = 3.23e5; Renilla control light, replicate 1 = 4.63e5; Renilla control light, replicate 2 = 3.26e5; inactive.
Depletion of CG32625 [DRSC28080] came out at: firefly reporter light, replicate 1 = 3.90e5; firefly reporter light, replicate 2 = 3.49e5; Renilla control light, replicate 1 = 1.24e6; Renilla control light, replicate 2 = 1.39e6; inactive.
Against CG33017 [DRSC06573] the deposit lists firefly reporter light, replicate 1 = 41705; firefly reporter light, replicate 2 = 58326; Renilla control light, replicate 1 = 8.23e5; Renilla control light, replicate 2 = 8.23e5; inactive.
Knock-down of CG33017 [DRSC06574] gave: firefly reporter light, replicate 1 = 36583; firefly reporter light, replicate 2 = 94444; Renilla control light, replicate 1 = 1.05e6; Renilla control light, replicate 2 = 1.05e6; inactive.
Against ci (cubitus interruptus) [DRSC17172] the deposit lists firefly reporter light, replicate 1 = 1.64e5; firefly reporter light, replicate 2 = 1.65e5; Renilla control light, replicate 1 = 1.67e6; Renilla control light, replicate 2 = 1.83e6; inactive.
Silencing of CG12104 [DRSC08254] gave: firefly reporter light, replicate 1 = 9.24e5; firefly reporter light, replicate 2 = 9.03e5; Renilla control light, replicate 1 = 2.23e6; Renilla control light, replicate 2 = 1.88e6; inactive.
With knock-down of CG12104 [DRSC26773], the record shows firefly reporter light, replicate 1 = 2.42e5; firefly reporter light, replicate 2 = 3.43e5; Renilla control light, replicate 1 = 7.02e5; Renilla control light, replicate 2 = 8.85e5; inactive.
After knock-down of CG34207 [DRSC38739], the record shows firefly reporter light, replicate 1 = 9.00e5; firefly reporter light, replicate 2 = 8.59e5; Renilla control light, replicate 1 = 1.86e6; Renilla control light, replicate 2 = 2.33e6; inactive.
After knock-down of CG14881 [DRSC15005], the screen gave firefly reporter light, replicate 1 = 95170; firefly reporter light, replicate 2 = 1.29e5; Renilla control light, replicate 1 = 1.44e6; Renilla control light, replicate 2 = 1.95e6; inactive.
Depletion of CG14881 [DRSC25898] resulted in: firefly reporter light, replicate 1 = 2.52e5; firefly reporter light, replicate 2 = 4.08e5; Renilla control light, replicate 1 = 8.92e5; Renilla control light, replicate 2 = 7.71e5; inactive.
Silencing of CG30447 [DRSC05820] resulted in: firefly reporter light, replicate 1 = 1.13e5; firefly reporter light, replicate 2 = 2.12e5; Renilla control light, replicate 1 = 3.63e5; Renilla control light, replicate 2 = 3.23e5; inactive.
After knock-down of Pkcdelta (Protein kinase C delta) [DRSC19356] the results were firefly reporter light, replicate 1 = 3.64e5; firefly reporter light, replicate 2 = 3.45e5; Renilla control light, replicate 1 = 3.76e6; Renilla control light, replicate 2 = 2.88e6; inactive.
Pkcdelta (Protein kinase C delta) [DRSC19399] showed firefly reporter light, replicate 1 = 4.16e5; firefly reporter light, replicate 2 = 3.88e5; Renilla control light, replicate 1 = 3.57e6; Renilla control light, replicate 2 = 3.19e6; inactive.
Pkcdelta (Protein kinase C delta) [DRSC27039] scored firefly reporter light, replicate 1 = 4.56e5; firefly reporter light, replicate 2 = 4.68e5; Renilla control light, replicate 1 = 7.12e5; Renilla control light, replicate 2 = 5.70e5; inactive.
Pkcdelta (Protein kinase C delta) [DRSC36811] scored inactive.
Pkcdelta (Protein kinase C delta) [DRSC36812] showed inactive.
For CG42720 (retired record) [DRSC22549], the values are firefly reporter light, replicate 1 = 5.41e5; firefly reporter light, replicate 2 = 5.72e5; Renilla control light, replicate 1 = 1.66e6; Renilla control light, replicate 2 = 1.35e6; inactive.
CG42720 (retired record) [DRSC29811] gave firefly reporter light, replicate 1 = 3.87e5; firefly reporter light, replicate 2 = 3.36e5; Renilla control light, replicate 1 = 1.54e6; Renilla control light, replicate 2 = 1.54e6; inactive.
With knock-down of CG10104 [DRSC05964], the screen gave firefly reporter light, replicate 1 = 52986; firefly reporter light, replicate 2 = 1.11e5; Renilla control light, replicate 1 = 1.29e6; Renilla control light, replicate 2 = 1.29e6; inactive.
With knock-down of GlcAT-I (Glucuronyltransferase I) [DRSC17307], the screen gave firefly reporter light, replicate 1 = 5.18e5; firefly reporter light, replicate 2 = 5.85e5; Renilla control light, replicate 1 = 1.18e6; Renilla control light, replicate 2 = 9.77e5; inactive.
Silencing of Xport-A + Xport-B [DRSC15586] came out at: firefly reporter light, replicate 1 = 52713; firefly reporter light, replicate 2 = 70050; Renilla control light, replicate 1 = 7.43e5; Renilla control light, replicate 2 = 7.99e5; inactive.

2 consecutive entries already listed, quoted:
CG14881 [DRSC25898] | firefly reporter light, replicate 1: 2.52e5; firefly reporter light, replicate 2: 4.08e5; Renilla control light, replicate 1: 8.92e5; Renilla control light, replicate 2: 7.71e5; activity call: inactive
CG30447 [DRSC05820] | firefly reporter light, replicate 1: 1.13e5; firefly reporter light, replicate 2: 2.12e5; Renilla control light, replicate 1: 3.63e5; Renilla control light, replicate 2: 3.23e5; activity call: inactive
